Measured data: PubChem BioAssay AID652272 (Drosophila RNAi Screening Center, 2013)

Purpose: 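Genome-wide knock-down search for components of Hedgehog signalling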 (primary screen)
Cells: Drosophila clone 8 (Cl8) cells
Reagent: long dsRNA against Drosophila genes
Measurement: 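Firefly light from a Hedgehog-responsive ptc promoter reporter and Renilla reference light, both read on a plate reader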
Direction: firefly Hh reporter signal: higher = more ptc reporter light; Renilla reference signal: higher = more Renilla control light
Call rule: 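Hit when the z-score averaged over two replicates is under -2 or over +3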
Meaning of the calls: active = hit: reporter lowered or raised; inactive = not a hit
In all, the deposit lists about 21,000 reagents; below is a random part of those with a known target gene and a result. Of all reagents, 503 (2.4%) are marked active. 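Raw plate light values, not normalised; calls rest on replicate z-scores that were not deposited; hits include reporter decreases as well as increases.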 Reagents against one gene are numbered here. A plus sign joins genes that one reagent is predicted to hit. The record does not give: the amount of reagent, the time to read-out.

no.	gene knocked down	reagent no.	firefly Hh reporter signal, replicate 1	firefly Hh reporter signal, replicate 2	firefly Hh reporter signal, replicate 3	Renilla reference signal, replicate 1	Renilla reference signal, replicate 2	activity call
1	Rh7 (Rhodopsin 7)	1	66384	53485		3920	2800	inactive
2	CG6553	1	99357	68171		2664	4587	inactive
3	sl (small wing)	1	74524	65347		1460	981	inactive
4	CG13720	1	18933	40408		2609	3104	inactive
5	CG31546	1	1.24e5	82984		4476	3106	inactive
6	CG5493 + CG5327	1	1.38e5	70957		3388	5225	inactive
7	Phae2 (Phaedra 2)	1	1.56e5	88613		3857	6932	inactive
8	CG9101	1	86915	1.83e5		3290	8615	inactive
9	ago (archipelago)	1	1.53e5	71290		6813	3477	inactive
10	CenB1A (Centaurin beta 1A)	1	7.83e5	2.32e5		32171	7005	inactive
11	ZnT86D (Zinc transporter 86D)	1	87009	1.29e5		2289	3389	inactive
12	sqh (spaghetti squash)	1	55833	66500		1760	1706	inactive
13	CG31253 + CG31131	1	51669	1.69e5		13392	4012	inactive
14	CG44251	1	92637	34544		2359	2813	inactive
15	Pde9 (Phosphodiesterase 9)	1	75131	1.75e5		2888	7187	inactive
16	Pde9 (Phosphodiesterase 9)	2	76007	2.35e5		1528	7365	inactive
17	Pde9 (Phosphodiesterase 9)	3	64402	2.11e5		1548	8484	inactive
18	Pde9 (Phosphodiesterase 9)	4	97750	3.12e5		3499	12621	inactive
19	CG5577	1	1.01e5	45904		3763	1964	inactive
20	SkpC (SKP1-related C)	1	1.12e5	3.05e5		3355	13824	inactive
21	SmydA-8 (SET and MYND domain containing, arthropod-specific, member 8)	1	1.34e5	2.85e5		5704	11601	inactive
22	pippin	1	1.15e5	86592		5026	3703	inactive
23	CG7542	1	1.34e5			2848	3424	inactive
24	CG13558	1	86589	53378		2186	4044	inactive
25	CG2493	1	57152	40537		2784	1405	inactive
26	otk (off-track)	1	96537	49715		2429	4048	inactive
27	sNPF (short neuropeptide F precursor)	1	94474	55091		2412	4997	inactive
28	CG43349	1	8.50e5	3.55e5		40013	12406	inactive
29	CG43058	1	1.03e5	2.26e5		2731	8779	inactive
30	CG15283	1	1.74e5	56586		4136	5036	inactive
31	Ugt37B1 (UDP-glycosyltransferase family 37 member B1)	1	1.11e5	35916		2776	3994	inactive
32	Vha68-2 (Vacuolar H[+] ATPase 68 kDa subunit 2)	1	1.59e5	73056		3776	6818	inactive
33	santa-maria	1	5.39e5	1.92e5		25594	7872	inactive
34	santa-maria	2	77852	74362		3728	3558	inactive
35	CG10474	1	78113	64409		2088	4443	inactive
36	CG12910	1	77193	26568		2960	870	inactive
37	Calr (Calreticulin)	1	39783	46714		1749	2384	active
38	Grp170 (Grp170 co-chaperone)	1	1.05e5	1.17e5		2729	3929	inactive
39	CG3339	1	52656	2.34e5		12443	5195	inactive
40	CG3339	2	75917	1.08e5		2808	3970	inactive
41	CG9164	1	3.47e5	1.33e5		18112	2914	inactive
42	CG9164	2	1.54e5	1.04e5		3682	2320	inactive
43	hbs (hibris)	1	1.26e5	66626		3210	5547	inactive
44	Nadk2 (NAD kinase 2, mitochondrial)	1	90166	55187		3740	2016	inactive
45	CG7639	1	81756	38080		2166	3152	inactive
46	QC (Glutaminyl cyclase)	1	1.05e5	85728		5445	3808	inactive
47	CG12689	1	71193	2.07e5		2352	7158	inactive
48	alpha-Est3 (alpha-Esterase-3)	1	1.36e5	95977		5312	3802	inactive
49	CG42822	1	47032	2.97e5		10260	6571	inactive
50	AANATL6 (Arylalkylamine N-acetyltransferase-like 6)	1	99237	54756		2674	4416	inactive
51	Grip (Glutamate receptor interacting protein)	1	28253	28340		1008	1625	inactive
52	Grip (Glutamate receptor interacting protein)	2	57666	1.50e5		2240	6023	inactive
53	CG32248	1	1.52e5	2.13e5		4384	9388	inactive
54	CG10752	1	89580	61152		4118	1114	inactive
55	CG9411	1	1.50e5	82250		3458	2292	inactive
56	CG42663	1	62901	52210		2024	3969	inactive
57	CG42663	2	99635	6.76e5	87568	2560	38746	inactive
58	png (pan gu)	1	63650	1.58e5		1808	6600	inactive
59	Sec61beta (Sec61 beta subunit)	1	1.42e5	5.79e5	60944	3773	36066	inactive
60	narya	1	1.72e5	1.09e5		4170	2498	inactive
61	dup (double parked)	1	37706	33111		1095	2392	inactive
62	CG5070	1	59385	1.58e5		2112	7718	inactive
63	OtopLa (Otopetrin-like a)	1	81612	4.95e5	2.54e5	3394	3483	inactive
64	OtopLa (Otopetrin-like a)	2	93434	2.77e5		3632	11089	inactive
65	St2 (Sulfotransferase 2)	1	1.45e5	1.88e5		4455	4836	inactive
66	Poxm (Pox meso)	1	1.43e5	7.61e5	2.11e5	5027	5654	inactive
67	bsk (basket)	1	1.05e5	67712		4730	3028	inactive
68	Yp1 (Yolk protein 1)	1	68020	1.42e5		1435	5095	inactive
69	Syx16 (Syntaxin 16)	1	65846	85553		1722	2154	inactive
70	CG32512	1	1.53e5	7.22e5	3.47e5	5784	5738	inactive
71	CG32512	2	1.07e5	68039		6535	3032	inactive
72	Vmat (Vesicular monoamine transporter)	1	98259	59659		4328	2536	inactive
73	Vmat (Vesicular monoamine transporter)	2	1.23e5	62403		3148	5267	inactive

Entries above whose gene name begins with P or p:
gene knocked down	reagent no.	firefly Hh reporter signal, replicate 1	firefly Hh reporter signal, replicate 2	firefly Hh reporter signal, replicate 3	Renilla reference signal, replicate 1	Renilla reference signal, replicate 2	activity call
Phae2 (Phaedra 2)	1	1.56e5	88613		3857	6932	inactive
Pde9 (Phosphodiesterase 9)	1	75131	1.75e5		2888	7187	inactive
Pde9 (Phosphodiesterase 9)	2	76007	2.35e5		1528	7365	inactive
Pde9 (Phosphodiesterase 9)	3	64402	2.11e5		1548	8484	inactive
Pde9 (Phosphodiesterase 9)	4	97750	3.12e5		3499	12621	inactive
pippin	1	1.15e5	86592		5026	3703	inactive
png (pan gu)	1	63650	1.58e5		1808	6600	inactive
Poxm (Pox meso)	1	1.43e5	7.61e5	2.11e5	5027	5654	inactive
